According to publication PMC8803338:
These are yes or no findings as the source states them, for the method shown. Binding seen in cells or lysates may run through a third protein. For some of these results: Sequences can lack the tags named with a protein.

Amino acid sequences for entries named in this document (tags omitted). A change or cut given only in a name is not applied to a line headed by its entry. Chains listed by the source or under a name are the forms on record and can include a tag or linker.
Myc-Numb65 (Q9QZS3, form named): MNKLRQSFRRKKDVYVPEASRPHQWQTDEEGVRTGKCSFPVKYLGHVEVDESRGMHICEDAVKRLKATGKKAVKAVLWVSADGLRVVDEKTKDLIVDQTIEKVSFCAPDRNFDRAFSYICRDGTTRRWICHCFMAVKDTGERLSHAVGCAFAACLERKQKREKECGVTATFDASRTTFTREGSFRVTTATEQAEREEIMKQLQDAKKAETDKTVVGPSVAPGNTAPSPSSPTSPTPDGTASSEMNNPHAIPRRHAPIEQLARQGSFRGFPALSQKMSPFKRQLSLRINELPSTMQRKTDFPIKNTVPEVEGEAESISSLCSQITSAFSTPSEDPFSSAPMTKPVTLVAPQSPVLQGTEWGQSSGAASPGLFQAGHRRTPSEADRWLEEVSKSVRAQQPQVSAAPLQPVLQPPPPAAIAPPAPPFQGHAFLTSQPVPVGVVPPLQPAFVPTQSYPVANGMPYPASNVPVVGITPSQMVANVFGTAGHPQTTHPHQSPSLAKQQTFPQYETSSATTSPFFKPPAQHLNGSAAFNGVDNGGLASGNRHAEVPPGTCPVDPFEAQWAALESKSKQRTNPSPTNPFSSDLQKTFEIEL
UniProt O88990: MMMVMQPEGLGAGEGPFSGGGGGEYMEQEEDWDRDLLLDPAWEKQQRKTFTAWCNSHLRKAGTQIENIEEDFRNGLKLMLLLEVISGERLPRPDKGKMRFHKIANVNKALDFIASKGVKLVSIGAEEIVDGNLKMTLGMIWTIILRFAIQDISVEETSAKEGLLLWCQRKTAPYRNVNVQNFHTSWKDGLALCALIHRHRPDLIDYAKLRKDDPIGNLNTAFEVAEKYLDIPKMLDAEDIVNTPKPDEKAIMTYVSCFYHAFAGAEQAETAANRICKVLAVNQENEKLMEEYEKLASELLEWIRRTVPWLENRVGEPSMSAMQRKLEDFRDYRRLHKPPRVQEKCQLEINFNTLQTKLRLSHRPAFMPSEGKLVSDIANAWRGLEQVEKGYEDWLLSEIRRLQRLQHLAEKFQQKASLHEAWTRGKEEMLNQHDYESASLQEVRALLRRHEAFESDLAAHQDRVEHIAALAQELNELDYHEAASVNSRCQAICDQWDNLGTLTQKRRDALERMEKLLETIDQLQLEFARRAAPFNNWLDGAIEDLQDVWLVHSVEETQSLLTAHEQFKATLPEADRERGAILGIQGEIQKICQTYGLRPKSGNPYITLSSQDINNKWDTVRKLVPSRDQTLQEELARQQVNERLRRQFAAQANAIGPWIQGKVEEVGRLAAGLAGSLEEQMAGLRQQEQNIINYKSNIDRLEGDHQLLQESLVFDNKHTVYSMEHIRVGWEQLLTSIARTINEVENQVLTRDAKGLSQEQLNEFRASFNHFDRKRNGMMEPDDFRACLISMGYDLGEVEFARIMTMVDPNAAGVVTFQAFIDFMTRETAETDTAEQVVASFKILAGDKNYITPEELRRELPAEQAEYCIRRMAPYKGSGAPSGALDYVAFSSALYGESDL
UniProt Q9JI91: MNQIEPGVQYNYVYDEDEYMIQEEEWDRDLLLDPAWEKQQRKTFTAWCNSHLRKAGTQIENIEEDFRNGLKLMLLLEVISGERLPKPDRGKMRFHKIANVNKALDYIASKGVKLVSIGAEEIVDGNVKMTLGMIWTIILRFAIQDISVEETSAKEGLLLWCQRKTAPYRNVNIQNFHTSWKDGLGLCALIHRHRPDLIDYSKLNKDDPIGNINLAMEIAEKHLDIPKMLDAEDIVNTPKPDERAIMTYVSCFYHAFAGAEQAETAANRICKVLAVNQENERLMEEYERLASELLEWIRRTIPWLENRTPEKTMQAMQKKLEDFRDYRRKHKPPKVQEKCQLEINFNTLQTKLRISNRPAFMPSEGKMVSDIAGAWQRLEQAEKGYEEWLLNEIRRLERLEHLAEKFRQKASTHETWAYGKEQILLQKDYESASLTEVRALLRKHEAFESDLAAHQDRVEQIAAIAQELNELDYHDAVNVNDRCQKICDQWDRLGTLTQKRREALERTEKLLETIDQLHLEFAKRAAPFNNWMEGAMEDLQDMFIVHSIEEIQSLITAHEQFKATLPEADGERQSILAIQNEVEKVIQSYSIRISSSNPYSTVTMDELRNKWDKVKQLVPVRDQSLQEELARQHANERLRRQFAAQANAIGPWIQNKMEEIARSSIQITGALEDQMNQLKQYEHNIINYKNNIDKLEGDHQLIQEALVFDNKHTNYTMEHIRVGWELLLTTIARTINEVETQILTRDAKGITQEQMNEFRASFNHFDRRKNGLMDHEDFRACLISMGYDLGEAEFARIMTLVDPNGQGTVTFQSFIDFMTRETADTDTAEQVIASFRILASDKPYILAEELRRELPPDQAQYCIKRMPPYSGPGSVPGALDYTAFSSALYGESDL

Assays:
[1] = molecular target: Myc-Numb65 (UniProt Q9QZS3); test: co-IP; AD293 cells cotransfected with Myc-tagged and EGFP-tagged plasmids, harvested 24 hours after transfection; NP-40 lysis buffer, anti-Myc-Tag, Protein A/G beads, Western blot
[2] = molecular target: T1, Myc-Numblike (UniProt O08919); test: as above
T1 sequence: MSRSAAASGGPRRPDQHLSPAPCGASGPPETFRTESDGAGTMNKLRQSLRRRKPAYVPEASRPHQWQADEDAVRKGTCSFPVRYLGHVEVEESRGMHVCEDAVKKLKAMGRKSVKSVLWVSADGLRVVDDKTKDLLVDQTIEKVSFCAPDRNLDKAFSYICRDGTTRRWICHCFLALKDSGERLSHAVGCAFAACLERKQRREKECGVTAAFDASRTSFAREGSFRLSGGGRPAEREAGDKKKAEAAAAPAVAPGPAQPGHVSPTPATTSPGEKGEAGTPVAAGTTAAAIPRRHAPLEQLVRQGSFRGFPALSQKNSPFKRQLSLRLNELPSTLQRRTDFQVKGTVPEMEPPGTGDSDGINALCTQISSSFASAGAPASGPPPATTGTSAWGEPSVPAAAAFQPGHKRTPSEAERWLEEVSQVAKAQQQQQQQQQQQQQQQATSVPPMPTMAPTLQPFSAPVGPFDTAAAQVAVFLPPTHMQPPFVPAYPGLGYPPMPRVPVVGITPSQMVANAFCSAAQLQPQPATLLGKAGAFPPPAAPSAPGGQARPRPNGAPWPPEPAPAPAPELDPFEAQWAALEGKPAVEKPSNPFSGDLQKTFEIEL

binding [1]	binding [2]	Substance
no binding	no binding	EGFP-ACTN3 (from UniProt O88990 1-900)
no binding	no binding	EGFP-ACTN2 (from UniProt Q9JI91 1-894)
